Test results as given in US20110111014A1, “METHODS AND COMPOSITIONS FOR TREATMENT OF NEUROLOGICAL DISORDERS” (Parkinson's Institute, priority 2007, published 2011).
At least one compound was matched to its structure with a doubt left. Some entries repeat one wording, which the source may state once for all of them.

Biological target: T1, α-synuclein (Homo sapiens, UniProt P37840)
T1 construct: made in house; host or cells: E. coli BL21(DE3), plasmid pRK172/α-synuclein WT
Experiment: Aggregation inhibition Thioflavin T assay (primary assay)
Format: biochemical

[1] = Flavonoids and related catechols screened, ThT and EM

| Compound | Inhibition of α-synuclein fibrillation [1] | further results |
| --- | --- | --- |
| O=C(O[C@@H]1Cc2c(O)cc(O)cc2O[C@@H]1c1cc(O)c(O)c(O)c1)c1cc(O)c(O)c(O)c1 [epigallocatechin gallate] | Significant inhibition: | – |
| O=C([O-])c1ccccc1-c1c2cc(Br)c(=O)cc-2oc2[c]([Hg+])c([O-])c(Br)cc12.[Na+].[Na+].[OH-] [merbromin] | – | Inhibition of α-synuclein fibrillation (NINDS Collection 2 Library, primary ThT and secondary EM assays, 35 μM α-synuclein, 100 μM test compound): Significant inhibition of fibrillation: |
| Oc1cc(O)c2c(c1)O[C@H](c1ccc(O)c(O)c1)[C@@H](O)[C@@H]2c1c(O)cc(O)c2c1O[C@H](c1ccc(O)c(O)c1)[C@H](O)C2 [procyanidin b4] | Significant inhibition: | – |
| CN(C)[C@@H]1C(O)=C(C(=O)NCN2CCCC2)C(=O)[C@@]2(O)C(O)=C3C(=O)c4c(O)cccc4[C@@](C)(O)[C@H]3C[C@@H]12 [rolitetracycline] | – | Inhibition of α-synuclein fibrillation (Spectrum Collection from MicroSource Discovery, ThT fluorescence, 72 hours): Partial Inhibitors: |
